The list shows a part of the results.
Experiments:
Assay in all cases: log2 fold change, soluble protein after heating vs DMSO (PISA); higher = thermal stabilisation; K562 cells, 10 uM, 30 min; active = over 0.2 and 3.5 SD of the protein, either way, in both replicates (recomputed)
[1] = compound: CN1CCN(CCOc2cc(OC3CCOCC3)c3c(Nc4c(Cl)ccc5c4OCO5)ncnc3c2)CC1 [saracatinib]
Procedure, shortened: (§1)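 K562 cells at 2×10^6 cells/mL were given 10 μM compound for 30 min. Aliquots then went through 3 min of heating across 48°C-58°C, were pooled, and were extracted in PBS with 0.5% NP-40 at 4°C, and the supernatant after 21,000xg for 90 min was quantified by TMTpro 16plex LC-MS/MS with channel sums equalised. Thermal stability relative to control samples, from duplicates, is given as log2 fold change.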

Chains of the proteins cited; added tags and fusions are not shown. Lines headed by an entry give the natural chain unless they say otherwise; changes in a name come on top.
UniProt Q86U28: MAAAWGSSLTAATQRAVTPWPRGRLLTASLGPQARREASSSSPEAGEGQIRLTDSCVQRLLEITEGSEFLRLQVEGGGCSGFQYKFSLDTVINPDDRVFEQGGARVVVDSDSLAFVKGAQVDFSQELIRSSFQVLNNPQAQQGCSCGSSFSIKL
UniProt Q9BT40: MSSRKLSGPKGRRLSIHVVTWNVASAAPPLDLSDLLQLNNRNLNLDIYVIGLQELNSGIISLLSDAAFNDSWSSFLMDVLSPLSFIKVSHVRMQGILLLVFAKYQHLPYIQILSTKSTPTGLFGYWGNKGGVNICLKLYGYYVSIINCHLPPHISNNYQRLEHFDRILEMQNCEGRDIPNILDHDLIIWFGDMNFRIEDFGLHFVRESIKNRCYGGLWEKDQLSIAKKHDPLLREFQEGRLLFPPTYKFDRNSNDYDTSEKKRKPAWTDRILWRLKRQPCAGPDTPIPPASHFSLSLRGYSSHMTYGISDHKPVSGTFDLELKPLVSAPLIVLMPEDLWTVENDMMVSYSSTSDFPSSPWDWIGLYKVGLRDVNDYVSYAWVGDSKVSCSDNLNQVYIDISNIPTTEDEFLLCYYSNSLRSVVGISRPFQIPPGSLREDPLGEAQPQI
UniProt Q5TA45, whole entry, looked up: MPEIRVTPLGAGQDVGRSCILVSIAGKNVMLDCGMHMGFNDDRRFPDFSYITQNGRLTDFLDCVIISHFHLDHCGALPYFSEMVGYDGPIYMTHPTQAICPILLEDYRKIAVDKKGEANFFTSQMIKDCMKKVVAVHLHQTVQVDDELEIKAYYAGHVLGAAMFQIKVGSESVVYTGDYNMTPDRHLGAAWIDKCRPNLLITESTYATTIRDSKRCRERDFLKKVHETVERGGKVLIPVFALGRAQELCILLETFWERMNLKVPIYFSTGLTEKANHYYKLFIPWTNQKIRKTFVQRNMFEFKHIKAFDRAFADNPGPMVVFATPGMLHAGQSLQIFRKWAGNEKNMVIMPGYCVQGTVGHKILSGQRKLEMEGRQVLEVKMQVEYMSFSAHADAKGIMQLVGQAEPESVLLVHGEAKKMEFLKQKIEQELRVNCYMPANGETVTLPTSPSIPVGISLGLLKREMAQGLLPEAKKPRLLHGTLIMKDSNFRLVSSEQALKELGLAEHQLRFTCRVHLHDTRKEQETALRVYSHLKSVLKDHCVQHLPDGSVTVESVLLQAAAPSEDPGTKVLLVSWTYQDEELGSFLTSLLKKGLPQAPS
UniProt Q96SY0, whole entry, looked up: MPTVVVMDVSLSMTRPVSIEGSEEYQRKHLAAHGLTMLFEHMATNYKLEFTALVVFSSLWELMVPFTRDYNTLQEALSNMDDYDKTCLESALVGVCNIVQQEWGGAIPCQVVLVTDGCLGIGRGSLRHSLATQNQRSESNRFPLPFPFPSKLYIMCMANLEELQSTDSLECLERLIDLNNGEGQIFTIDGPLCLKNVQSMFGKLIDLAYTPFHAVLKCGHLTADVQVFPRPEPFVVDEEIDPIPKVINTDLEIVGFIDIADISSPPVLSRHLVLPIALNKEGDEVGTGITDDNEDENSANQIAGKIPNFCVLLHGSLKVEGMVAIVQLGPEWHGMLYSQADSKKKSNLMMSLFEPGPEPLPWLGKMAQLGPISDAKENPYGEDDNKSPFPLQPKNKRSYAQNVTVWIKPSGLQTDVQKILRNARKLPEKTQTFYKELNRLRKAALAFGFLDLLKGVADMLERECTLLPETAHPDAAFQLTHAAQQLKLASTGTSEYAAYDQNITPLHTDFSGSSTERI
UniProt P48200: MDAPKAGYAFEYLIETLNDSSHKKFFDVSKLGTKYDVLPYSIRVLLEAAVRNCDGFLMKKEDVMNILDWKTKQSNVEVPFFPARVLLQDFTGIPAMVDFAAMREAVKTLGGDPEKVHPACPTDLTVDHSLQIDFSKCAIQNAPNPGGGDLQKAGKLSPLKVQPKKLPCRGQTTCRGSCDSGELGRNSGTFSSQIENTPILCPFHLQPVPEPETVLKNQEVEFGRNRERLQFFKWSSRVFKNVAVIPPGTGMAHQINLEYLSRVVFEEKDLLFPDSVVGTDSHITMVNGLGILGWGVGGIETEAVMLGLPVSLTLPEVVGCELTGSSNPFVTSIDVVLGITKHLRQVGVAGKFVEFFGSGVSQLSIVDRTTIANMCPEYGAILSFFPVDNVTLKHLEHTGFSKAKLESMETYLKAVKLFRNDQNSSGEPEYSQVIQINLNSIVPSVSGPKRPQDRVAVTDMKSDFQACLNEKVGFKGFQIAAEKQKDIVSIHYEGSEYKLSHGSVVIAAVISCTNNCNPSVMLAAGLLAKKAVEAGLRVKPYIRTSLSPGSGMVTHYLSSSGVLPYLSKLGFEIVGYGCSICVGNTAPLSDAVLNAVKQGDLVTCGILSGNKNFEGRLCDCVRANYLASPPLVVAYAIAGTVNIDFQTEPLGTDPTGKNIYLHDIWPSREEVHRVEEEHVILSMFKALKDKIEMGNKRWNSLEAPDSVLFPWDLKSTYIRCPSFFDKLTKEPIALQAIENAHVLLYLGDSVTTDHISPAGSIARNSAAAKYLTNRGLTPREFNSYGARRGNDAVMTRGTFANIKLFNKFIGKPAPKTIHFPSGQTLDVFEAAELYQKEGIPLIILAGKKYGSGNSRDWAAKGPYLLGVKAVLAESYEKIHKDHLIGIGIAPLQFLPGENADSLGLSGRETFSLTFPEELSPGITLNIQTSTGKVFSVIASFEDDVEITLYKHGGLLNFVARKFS
UniProt Q96HW7, whole entry, looked up: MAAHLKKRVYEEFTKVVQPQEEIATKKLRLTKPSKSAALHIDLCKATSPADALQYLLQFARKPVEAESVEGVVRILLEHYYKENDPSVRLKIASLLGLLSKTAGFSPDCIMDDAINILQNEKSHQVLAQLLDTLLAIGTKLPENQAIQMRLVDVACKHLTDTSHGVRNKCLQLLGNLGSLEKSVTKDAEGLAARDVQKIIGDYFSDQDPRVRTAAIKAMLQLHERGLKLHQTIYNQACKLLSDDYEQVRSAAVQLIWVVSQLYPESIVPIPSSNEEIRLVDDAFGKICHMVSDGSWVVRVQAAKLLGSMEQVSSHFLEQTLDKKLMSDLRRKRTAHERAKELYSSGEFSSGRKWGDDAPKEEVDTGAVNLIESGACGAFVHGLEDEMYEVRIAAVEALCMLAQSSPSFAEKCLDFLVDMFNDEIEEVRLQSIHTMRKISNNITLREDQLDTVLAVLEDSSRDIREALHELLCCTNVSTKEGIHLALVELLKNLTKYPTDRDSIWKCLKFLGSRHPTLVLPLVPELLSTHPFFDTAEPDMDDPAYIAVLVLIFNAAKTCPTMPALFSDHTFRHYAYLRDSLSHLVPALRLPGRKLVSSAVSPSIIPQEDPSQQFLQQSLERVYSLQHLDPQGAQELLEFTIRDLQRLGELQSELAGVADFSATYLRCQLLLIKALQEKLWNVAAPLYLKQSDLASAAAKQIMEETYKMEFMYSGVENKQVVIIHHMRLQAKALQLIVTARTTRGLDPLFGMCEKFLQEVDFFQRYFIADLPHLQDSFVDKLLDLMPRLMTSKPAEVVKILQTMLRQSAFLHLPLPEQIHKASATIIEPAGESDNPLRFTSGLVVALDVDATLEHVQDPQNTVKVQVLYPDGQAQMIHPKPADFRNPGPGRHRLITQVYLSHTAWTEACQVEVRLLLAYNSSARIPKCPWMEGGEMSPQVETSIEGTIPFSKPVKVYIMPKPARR
UniProt Q96AB3: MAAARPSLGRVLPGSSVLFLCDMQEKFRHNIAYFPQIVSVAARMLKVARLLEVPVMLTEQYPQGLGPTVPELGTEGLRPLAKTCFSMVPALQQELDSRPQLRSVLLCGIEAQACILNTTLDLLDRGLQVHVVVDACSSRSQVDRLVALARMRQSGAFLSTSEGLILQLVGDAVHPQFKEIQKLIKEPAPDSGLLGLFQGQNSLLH
UniProt O14732: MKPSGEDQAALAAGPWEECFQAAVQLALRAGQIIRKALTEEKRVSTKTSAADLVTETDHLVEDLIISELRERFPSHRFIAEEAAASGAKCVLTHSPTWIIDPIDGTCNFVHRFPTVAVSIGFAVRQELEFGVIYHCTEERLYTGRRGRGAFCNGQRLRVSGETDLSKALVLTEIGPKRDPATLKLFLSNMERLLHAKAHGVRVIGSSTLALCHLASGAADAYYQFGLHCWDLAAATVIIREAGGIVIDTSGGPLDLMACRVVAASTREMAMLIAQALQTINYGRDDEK
UniProt P08648, whole entry, looked up: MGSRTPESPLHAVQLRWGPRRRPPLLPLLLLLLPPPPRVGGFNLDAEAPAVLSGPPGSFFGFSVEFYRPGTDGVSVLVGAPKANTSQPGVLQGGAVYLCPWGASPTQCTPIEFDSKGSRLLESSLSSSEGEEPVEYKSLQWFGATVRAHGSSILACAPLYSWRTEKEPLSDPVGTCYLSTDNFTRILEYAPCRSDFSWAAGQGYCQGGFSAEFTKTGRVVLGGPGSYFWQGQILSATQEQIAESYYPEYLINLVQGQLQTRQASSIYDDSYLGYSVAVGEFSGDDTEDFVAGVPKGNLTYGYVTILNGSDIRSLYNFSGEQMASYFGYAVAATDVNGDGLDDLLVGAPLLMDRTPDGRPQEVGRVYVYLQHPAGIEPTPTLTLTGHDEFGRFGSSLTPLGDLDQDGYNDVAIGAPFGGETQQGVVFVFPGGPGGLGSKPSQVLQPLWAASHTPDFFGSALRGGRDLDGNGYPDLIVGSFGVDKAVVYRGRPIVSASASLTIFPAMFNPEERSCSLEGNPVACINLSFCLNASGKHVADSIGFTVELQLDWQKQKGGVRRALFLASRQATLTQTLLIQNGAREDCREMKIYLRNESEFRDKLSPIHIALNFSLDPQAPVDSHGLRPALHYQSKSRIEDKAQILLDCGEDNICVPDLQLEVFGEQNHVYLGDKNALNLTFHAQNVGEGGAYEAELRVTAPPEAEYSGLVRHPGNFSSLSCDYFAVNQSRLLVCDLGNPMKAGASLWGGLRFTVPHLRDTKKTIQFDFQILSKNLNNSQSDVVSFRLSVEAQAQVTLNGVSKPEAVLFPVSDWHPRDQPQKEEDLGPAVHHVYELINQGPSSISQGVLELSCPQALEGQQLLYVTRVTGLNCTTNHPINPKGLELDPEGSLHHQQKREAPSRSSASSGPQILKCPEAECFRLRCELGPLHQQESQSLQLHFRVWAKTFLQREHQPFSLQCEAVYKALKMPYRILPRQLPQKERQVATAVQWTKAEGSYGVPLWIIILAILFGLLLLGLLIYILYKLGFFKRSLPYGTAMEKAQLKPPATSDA
UniProt Q9BUE6: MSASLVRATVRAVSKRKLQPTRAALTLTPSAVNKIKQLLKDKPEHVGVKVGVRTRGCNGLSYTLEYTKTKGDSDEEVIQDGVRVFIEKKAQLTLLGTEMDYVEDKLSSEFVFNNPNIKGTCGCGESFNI
UniProt P05161, whole entry, looked up: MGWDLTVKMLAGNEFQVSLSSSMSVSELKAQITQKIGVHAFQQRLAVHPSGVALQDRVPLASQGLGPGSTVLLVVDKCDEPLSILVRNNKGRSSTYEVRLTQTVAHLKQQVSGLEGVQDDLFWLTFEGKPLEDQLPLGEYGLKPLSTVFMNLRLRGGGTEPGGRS
UniProt P06756, whole entry, looked up: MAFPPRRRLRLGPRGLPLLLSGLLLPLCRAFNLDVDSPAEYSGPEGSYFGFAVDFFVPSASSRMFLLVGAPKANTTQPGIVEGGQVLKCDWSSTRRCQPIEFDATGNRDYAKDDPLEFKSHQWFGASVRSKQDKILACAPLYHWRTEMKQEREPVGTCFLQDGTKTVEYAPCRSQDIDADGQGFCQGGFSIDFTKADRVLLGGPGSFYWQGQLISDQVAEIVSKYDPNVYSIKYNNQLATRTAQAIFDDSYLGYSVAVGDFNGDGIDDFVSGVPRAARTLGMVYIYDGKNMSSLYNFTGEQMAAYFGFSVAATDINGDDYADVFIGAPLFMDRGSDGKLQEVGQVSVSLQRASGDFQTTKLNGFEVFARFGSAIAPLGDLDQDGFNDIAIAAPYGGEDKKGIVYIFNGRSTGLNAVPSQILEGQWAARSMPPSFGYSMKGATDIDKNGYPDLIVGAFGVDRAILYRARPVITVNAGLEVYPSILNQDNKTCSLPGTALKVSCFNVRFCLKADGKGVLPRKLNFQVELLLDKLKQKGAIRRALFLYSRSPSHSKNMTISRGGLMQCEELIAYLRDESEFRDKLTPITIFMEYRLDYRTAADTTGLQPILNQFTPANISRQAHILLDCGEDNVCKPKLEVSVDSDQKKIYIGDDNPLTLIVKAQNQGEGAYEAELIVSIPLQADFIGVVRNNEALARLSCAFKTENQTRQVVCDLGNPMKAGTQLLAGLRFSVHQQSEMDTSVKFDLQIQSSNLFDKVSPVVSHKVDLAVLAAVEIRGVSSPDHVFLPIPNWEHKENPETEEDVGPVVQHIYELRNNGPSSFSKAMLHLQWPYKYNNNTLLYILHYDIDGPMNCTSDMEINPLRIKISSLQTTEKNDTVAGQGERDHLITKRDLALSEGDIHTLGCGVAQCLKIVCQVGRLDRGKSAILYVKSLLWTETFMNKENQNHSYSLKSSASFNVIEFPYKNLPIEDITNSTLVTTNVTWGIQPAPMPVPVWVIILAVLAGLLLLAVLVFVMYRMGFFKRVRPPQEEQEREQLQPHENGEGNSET

[2] = compound: CN1CCN(c2nc(C3=C(c4c[nH]c5ccccc45)C(=O)NC3=O)c3ccccc3n2)CC1 [sotrastaurin]
Procedure, shortened: as §1

[3] = compound: CN1CC[C@H](c2c(O)cc(O)c3c(=O)cc(-c4ccccc4Cl)oc23)[C@H](O)C1 [alvocidib]
Procedure, shortened: as §1

[4] = compound: CN1CCc2c(c3ccccc3n2Cc2ccc(C(=O)NO)cc2)C1 [Tubastatin A]
Procedure, shortened: as §1

[5] = compound: CNC(=O)C1=CC=CC=C1NC2=NC(=NC=C2Cl)NC3=C(C=C(C=C3)N4CCOCC4)OC
Procedure, shortened: as §1

[6] = compound: CNC(=O)c1ccc(Nc2ncc(C(F)(F)F)c(NCc3nccnc3N(C)S(C)(=O)=O)n2)cc1 [defactinib]
Procedure, shortened: as §1

[7] = compound: CNCc1ccc(-c2[nH]c3cc(F)cc4c3c2CCNC4=O)cc1 [rucaparib]
Procedure, shortened: as §1

[8] = compound: CNc1nc(-c2ccc3c(N)n[nH]c3c2)cc(N2C[C@@H](C(=O)NC3CCCCC3)CC[C@H]2C)n1
Procedure, shortened: as §1

[9] = compound: COC(=O)N[C@@H](C)CNc1nccc(-c2cn(C(C)C)nc2-c2cc(Cl)cc(NS(C)(=O)=O)c2F)n1 [encorafenib]
Procedure, shortened: as §1

[10] = compound: COC(=O)[C@H](CCSC)NC(=O)C1=C(C=C(C=C1)NC[C@H](CS)N)C2=CC=CC=C2
Procedure, shortened: as §1

Measured: log2 fold change

INTS10 (UniProt Q9NVR2)
inactive: [1] 0.019 | [2] -0.04 | [3] -0.055 | [4] 0.08 | [5] 0 | [6] -0.196 | [7] 0.011 | [8] -0.08 | [9] 0.066 | [10] -0.069

ISCA2 (UniProt Q86U28)
inactive: [1] 0.085 | [2] 0.003 | [3] 0.002 | [4] -0.085 | [5] 0.043 | [6] -0.075 | [7] -0.031 | [8] 0.011 | [9] -0.028 | [10] -0.026

IGF2BP3 (UniProt O00425)
inactive: [1] -0.123 | [2] -0.185 | [3] 0.158 | [4] 0.156 | [5] -0.031 | [6] 0.116 | [7] 0.621 | [8] 0.118 | [9] 0.302 | [10] -0.034

INPP5K (UniProt Q9BT40)
inactive: [1] 0.016 | [2] 0.022 | [3] 0.025 | [4] -0.005 | [5] -0.061 | [6] 0.072 | [7] 0.011 | [8] 0.297 | [9] 0.033 | [10] -0.027

IDH3B (UniProt O43837)
inactive: [1] 0.035 | [2] 0.011 | [3] -0.038 | [4] 0.036 | [5] -0.004 | [6] -0.065 | [7] -0.054 | [8] 0.013 | [9] -0.029 | [10] -0.028

ISY1 isoform 1 (UniProt Q9ULR0)
inactive: [1] 0.019 | [2] 0.037 | [3] 0.14 | [4] -0.003 | [5] 0.013 | [6] 0.113 | [7] 0.101 | [8] -0.066 | [9] -0.033 | [10] 0.027

INTS11 (UniProt Q5TA45)
inactive: [1] 0.046 | [2] -0.026 | [3] -0.03 | [4] -0.051 | [5] 0.01 | [6] -0.076 | [7] 0.006 | [8] 0.004 | [9] -0.01 | [10] -0.029

INTS14 (UniProt Q96SY0)
inactive: [1] -0.028 | [2] -0.01 | [3] -0.033 | [4] 0.006 | [5] -0.049 | [6] -0.097 | [7] -0.009 | [8] 0.017 | [9] 0.031 | [10] -0.016

IKBIP (UniProt Q70UQ0)
inactive: [1] -0.018 | [2] 0.028 | [3] -0.016 | [4] -0.016 | [5] -0.007 | [6] 0.038 | [7] 0.016 | [8] -0.034 | [9] -0.022 | [10] 0.03

IREB2 (UniProt P48200)
inactive: [1] -0.042 | [2] -0.042 | [3] -0.012 | [4] -0.152 | [5] -0.015 | [6] 0.003 | [7] 0.09 | [8] 0.001 | [9] 0.085 | [10] -0.004

INTS4 (UniProt Q96HW7)
inactive: [1] 0.032 | [2] 0.005 | [3] -0.094 | [4] -0.013 | [5] -0.015 | [6] -0.042 | [7] -0.018 | [8] -0.064 | [9] 0.004 | [10] -0.01

IMPDH2 (UniProt P12268)
inactive: [1] -0.071 | [2] -0.007 | [3] 0.048 | [4] 0.065 | [5] -0.036 | [6] 0.067 | [7] 0.024 | [8] 0.049 | [9] 0.069 | [10] -0.022

ISOC2 (UniProt Q96AB3)
inactive: [1] -0.135 | [2] -0.027 | [3] 0.25 | [4] 0.043 | [5] -0.071 | [6] 0.031 | [7] 0.096 | [8] -0.122 | [9] 0.007 | [10] 0.068

INPPL1 (UniProt O15357)
inactive: [1] -0.133 | [2] -0.141 | [3] -0.104 | [4] -0.005 | [5] 0.041 | [6] -0.035 | [7] 0.082 | [8] 0.022 | [9] 0.031 | [10] -0.072

INTS3 (UniProt Q68E01)
inactive: [1] 0.004 | [2] -0.112 | [3] -0.098 | [4] 0.034 | [5] -0.006 | [6] -0.061 | [7] 0.014 | [8] -0.037 | [9] -0.061 | [10] 0.028

ITPK1 (UniProt Q13572)
inactive: [1] -0.014 | [2] 0.067 | [3] -0.051 | [4] 0.058 | [5] -0.067 | [6] -0.025 | [7] -0.074 | [8] 0.048 | [9] -0.026 | [10] -0.064

ITPA (UniProt Q9BY32)
inactive: [1] -0.037 | [2] 0.017 | [3] -0.006 | [4] 0.022 | [5] -0.068 | [6] -0.002 | [7] 0.034 | [8] -0.024 | [9] -0.023 | [10] -0.026

INTS13 (UniProt Q9NVM9)
inactive: [1] -0.049 | [2] -0.065 | [3] -0.14 | [4] 0.038 | [5] -0.051 | [6] -0.126 | [7] -0.011 | [8] 0.081 | [9] 0.003 | [10] -0.048

IRF2BP2 (UniProt Q7Z5L9)
inactive: [1] 0.021 | [2] 0.027 | [3] -0.063 | [4] 0.039 | [5] 0.03 | [6] -0.033 | [7] 0.023 | [8] -0.041 | [9] -0.001 | [10] -0.043

IMPA2 (UniProt O14732)
inactive: [1] -0.085 | [2] -0.102 | [3] 0.024 | [4] -0.053 | [5] -0.047 | [6] -0.022 | [7] -0.057 | [8] -0.023 | [9] -0.133 | [10] 0.073

ITGA5 (UniProt P08648)
inactive: [1] 0.009 | [2] 0.042 | [3] -0.022 | [4] -0.005 | [5] -0.056 | [6] -0.044 | [7] 0.031 | [8] 0.03 | [9] -0.014 | [10] 0.01

IFI35 isoform 2 (UniProt P80217)
inactive: [1] 0.03 | [2] 0.017 | [3] -0.046 | [4] 0.003 | [5] -0.052 | [6] -0.018 | [7] 0.036 | [8] 0.013 | [9] -0.037 | [10] -0.011

IRGQ (UniProt Q8WZA9)
inactive: [1] 0.033 | [2] -0.075 | [3] -0.055 | [4] 0 | [5] -0.022 | [6] -0.034 | [7] -0.017 | [8] -0.037 | [9] 0.004 | [10] 0.039

Looked up one by one from above (two):
INTS3 (UniProt Q68E01)
inactive: [1] 0.004 | [2] -0.112 | [3] -0.098 | [4] 0.034 | [5] -0.006 | [6] -0.061 | [7] 0.014 | [8] -0.037 | [9] -0.061 | [10] 0.028

IMPDH2 (UniProt P12268)
inactive: [1] -0.071 | [2] -0.007 | [3] 0.048 | [4] 0.065 | [5] -0.036 | [6] 0.067 | [7] 0.024 | [8] 0.049 | [9] 0.069 | [10] -0.022

Going on with the list.

ISCA1 isoform 2 (UniProt Q9BUE6)
inactive: [1] 0.031 | [2] 0.01 | [3] -0.053 | [4] -0.154 | [5] 0.021 | [6] 0.01 | [7] 0.026 | [8] -0.051 | [9] -0.118 | [10] 0.069

IMPAD1 (UniProt Q9NX62)
inactive: [1] 0.001 | [2] 0.029 | [3] 0.003 | [4] 0.01 | [5] -0.016 | [6] -0.052 | [7] -0.059 | [8] -0.012 | [9] 0.004 | [10] -0.025

ISG15 (UniProt P05161)
inactive: [1] -0.085 | [2] -0.085 | [3] -0.217 | [4] 0.088 | [5] 0.088 | [6] -0.177 | [7] -0.003 | [8] 0.01 | [9] 0.085 | [10] -0.041

ITGAV (UniProt P06756)
inactive: [1] 0.059 | [2] 0.053 | [3] 0.031 | [4] -0.005 | [5] -0.02 | [6] -0.009 | [7] 0.03 | [8] -0.031 | [9] 0.029 | [10] 0.008

Source: the supplement of paper PMC10849652
